From paper PMC5306359 come the findings set out here.

The chains behind the UniProt entries cited, without tags or fusion partners.
UniProt P06537: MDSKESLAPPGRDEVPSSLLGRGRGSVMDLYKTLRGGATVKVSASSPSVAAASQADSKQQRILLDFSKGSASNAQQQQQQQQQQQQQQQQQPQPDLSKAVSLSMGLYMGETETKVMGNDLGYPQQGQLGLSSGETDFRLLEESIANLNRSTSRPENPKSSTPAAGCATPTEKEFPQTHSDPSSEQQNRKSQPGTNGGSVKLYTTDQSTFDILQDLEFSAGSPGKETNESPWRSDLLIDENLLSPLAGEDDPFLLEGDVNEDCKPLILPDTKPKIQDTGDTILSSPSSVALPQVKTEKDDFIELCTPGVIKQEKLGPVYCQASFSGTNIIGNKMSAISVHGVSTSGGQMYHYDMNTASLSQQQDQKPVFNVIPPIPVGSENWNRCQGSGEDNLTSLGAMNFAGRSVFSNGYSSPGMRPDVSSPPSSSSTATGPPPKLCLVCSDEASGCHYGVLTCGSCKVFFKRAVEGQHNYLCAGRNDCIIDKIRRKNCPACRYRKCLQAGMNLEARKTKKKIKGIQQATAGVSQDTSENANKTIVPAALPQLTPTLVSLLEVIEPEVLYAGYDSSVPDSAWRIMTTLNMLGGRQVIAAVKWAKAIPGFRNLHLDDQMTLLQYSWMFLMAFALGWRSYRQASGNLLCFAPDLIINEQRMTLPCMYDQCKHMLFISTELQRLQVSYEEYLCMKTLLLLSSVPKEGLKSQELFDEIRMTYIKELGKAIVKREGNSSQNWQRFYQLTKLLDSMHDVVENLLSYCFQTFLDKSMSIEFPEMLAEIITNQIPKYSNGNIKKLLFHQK
UniProt O54918: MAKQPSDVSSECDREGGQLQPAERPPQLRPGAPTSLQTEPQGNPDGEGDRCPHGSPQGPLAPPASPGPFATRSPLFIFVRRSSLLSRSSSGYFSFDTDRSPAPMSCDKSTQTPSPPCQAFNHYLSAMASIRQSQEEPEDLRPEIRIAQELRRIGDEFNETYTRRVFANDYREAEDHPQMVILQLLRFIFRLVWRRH

Results are given in words; binding and its absence hold for the method and conditions named. Binding seen in cells or lysates may run through a third protein. Some entries that bind do so weakly or less than the wild type.

Sequences and labels used below:
B1: Bak (protein, UniProt O08734 1-209)
chain: MASGQGPGPPKVGCDESPSPSEQQVAQDTEEVFRSYVFYLHQQEQETQGAAAPANPEMDNLPLEPNSILGQVGRQLALIGDDINRRYDTEFQNLLEQLQPTAGNAYELFTKIASSLFKSGISWGRVVALLGFGYRLALYVYQRGLTGFLGQVTCFLADIILHHYIARWIAQRGGWVAALNFRRDPILTVMVIFGVVLLGQFVVHRFFRS

The test has as its target glucocorticoid receptor (mouse (endogenous in BALB/c thymocytes)) (UniProt P06537). Briefly: co-IP; anti-GR (clone 8E9) immunoprecipitation overnight, Protein-G, from cytoplasmic and mitochondrial fractions of unseparated mouse thymocytes treated 30 min with DX or vehicle; western blot for Bak, Bcl-xL, Bim; washed five times in PBS. A general note: In western blotting, separated proteins are transferred to a membrane and probed.
As for Bcl-xL (from UniProt Q64373-1 1-233), the binding entry is on record as “binds”. With Bim (from UniProt O54918 1-196) the entry was “binds”; with B1, “binds”.
